Measured values from PubChem BioAssay AID1347423 (Functional Genomics Laboratory (NCATS/FGL), 2020).
In all, about 52,000 sequences went through this assay and about 210 (0.4%) were called active.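 Rule for the calls: active = gene whose silencing raises cell survival under the drug, median off-target-corrected z-score across its silencing RNAs 2 or more; inactive = the rest.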 This is one part of the list.

Assay: Resistance to Poly (ADP-Ribose) Polymerase inhibitor: Gene Identification via Genome-wide siRNA Screen
Details: mouse BRCA2 R2336H ES cells, olaparib, CellTiter-Glo viability; active compounds read high
In short: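 Genome-wide siRNA screen (3 siRNAs/gene, 20 nM) in mouse ES cells carrying hypomorphic BRCA2 R2336H; olaparib 500 nM added 48 h post-transfection, CellTiter-Glo viability 72 h later. Normalized to plate-median negative control; MAD z-scores, gene median, seed-adjusted.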

Row | Sequence | z-score
1 | GGACCUUGGAUUGACAGGUTT against 1300004G08Rik | inactive: 0.185
2 | GCGUGGUGUUGACUAUGAGTT against 0610039N19Rik | inactive: 0.841
3 | CGCCUGACUUCGUGUAUUUTT against Prrg2 | inactive: -0.54
4 | UUCGCUCUUGGUCCCUUCATT against Olfr1322 | inactive: -1.91
5 | ACAAAGUCGCCUUCUUCCGTT against Gpr113 | inactive: -1.33
6 | GGGUGACAUCAUGACAGUGTT against Bcar1 | inactive: -2.09
7 | GGAGUUGUGUCCCAGAUUGTT against BC046386 | inactive: 1.23
8 | GACUUAUAUUCCUCCAUCUTT against E330013P04Rik | inactive: -0.223
9 | GUGUAGUGAUCAAUAGAUCTT against LOC432823 | inactive: 0.322
10 | GGUCAAGCCUUCCUUUUCUTT against Cldn23 | inactive: 0.714
11 | GGACCAAAUCCUCUGAUUCTT against D030060M11Rik | inactive: 0.827
12 | GGCUGCAUAAAGGUGUUGATT against D12Ertd553e | inactive: -0.027
13 | GCAAAUGAGAGGUCUGUUGTT against Olfr1024 | inactive: -1.03
14 | GGAGAUCAAAAACAGCUUUTT against Tob1 | inactive: -1.14
15 | GGAUGAAGGUGCUUUUAAATT against Gnrhr | inactive: 0.802
16 | GGCCAAUUCCAGUGAGAUGTT against Gluld1 | inactive: -0.135
17 | CGGGCAUAUUGAUGUUAAATT against Fech | inactive: 0.732
18 | GCCGAUCCAGAUUAUCAACTT against Dscr3 | inactive: 1.09
19 | GAGACAAUGCAGCAAAAUCTT against Gm839 | inactive: 2.47
20 | GCCCUUUUGCCUCUGAACUTT against Capg | inactive: 0.386
21 | CGAACCUACAGAGCUCAUGTT against Rpl17 | inactive: -2.32
22 | CCAGAAUUGUUGUUUAUUCTT against Rbbp4 | inactive: 1
23 | GGAACUAACGGAAUUACUGTT against Arl3 | inactive: -1.87
24 | GGAUCCUGUGGCUAAAGAGTT against BC036563 | inactive: -0.364
25 | GGUUCAGAACAAAAUCUACTT against Cd209d | inactive: 0.517
26 | GGAAUAAGGCGAGUUGGAATT against 1200009K13Rik | inactive: -2.8
27 | GGCUAAUGUGCUUUCCCAUTT against Olfr643 | inactive: 2.29
28 | CGAGGCACUUCUCACUCAUTT against Cyp2c54 | inactive: -0.86
29 | GGAGAAGUGACUUUUUCGUTT against 1700056O17Rik | inactive: 0.582

Random excerpt: two records from the list, in no set order.
Row | Sequence | z-score
23 | GGAACUAACGGAAUUACUGTT against Arl3 | inactive: -1.87
13 | GCAAAUGAGAGGUCUGUUGTT against Olfr1024 | inactive: -1.03
